The source of these data is PMC8986809.

Chains of the proteins cited; added tags and fusions are not shown.
UniProt Q00987: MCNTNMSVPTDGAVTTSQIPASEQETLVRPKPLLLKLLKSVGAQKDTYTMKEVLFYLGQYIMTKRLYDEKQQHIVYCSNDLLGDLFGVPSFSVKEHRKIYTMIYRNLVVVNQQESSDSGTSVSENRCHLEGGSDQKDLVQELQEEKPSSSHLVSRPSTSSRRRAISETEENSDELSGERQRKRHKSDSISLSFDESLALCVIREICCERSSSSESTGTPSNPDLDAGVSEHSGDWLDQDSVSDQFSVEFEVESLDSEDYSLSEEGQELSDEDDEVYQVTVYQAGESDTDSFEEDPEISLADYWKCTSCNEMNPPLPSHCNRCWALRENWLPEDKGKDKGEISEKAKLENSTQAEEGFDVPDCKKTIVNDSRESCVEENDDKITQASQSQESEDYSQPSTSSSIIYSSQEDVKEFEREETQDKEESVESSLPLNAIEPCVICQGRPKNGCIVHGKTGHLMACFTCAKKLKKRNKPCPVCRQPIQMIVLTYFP
UniProt P67809: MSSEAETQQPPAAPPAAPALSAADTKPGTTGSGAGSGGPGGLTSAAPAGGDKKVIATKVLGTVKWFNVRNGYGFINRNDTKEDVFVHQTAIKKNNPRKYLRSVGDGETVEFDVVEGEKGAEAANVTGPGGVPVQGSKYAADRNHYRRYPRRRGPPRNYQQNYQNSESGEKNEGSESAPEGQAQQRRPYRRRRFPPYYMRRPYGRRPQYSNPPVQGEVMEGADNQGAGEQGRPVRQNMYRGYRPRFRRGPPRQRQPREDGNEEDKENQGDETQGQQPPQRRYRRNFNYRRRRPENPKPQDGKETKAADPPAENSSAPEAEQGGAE

The experiment addresses MDM2 (mouse double minute 2 homologue), E3 ubiquitin-protein ligase (human (endogenous in NSCLC cell lines)) (UniProt Q00987). The experiment is described as follows: co-IP; NSCLC cell lysate (50 mM Tris-HCl, 200 mM NaCl, 1 mM EDTA, 1% Triton X-100, protease inhibitor); anti-MDM2 or IgG overnight at 4 °C, Protein-A Dynabeads 3 h at 4 °C; blot for YBX1 and MDM2; also in cells transfected with shNC or sh-HOXC-AS3 (more YBX1) and with NC or OE-HOXC-AS3 (less YBX1).

No constants are given. Whether binding was seen depends on the method and setting. Binding seen in cells or lysates may run through a third protein. Some entries that bind do so weakly or less than the wild type.

As to “Y-box binding protein-1 (from UniProt P67809 1-324)”, the binding result is reported as “binds”.
